The subject of this series is brain. Briefly: In vivo panning of phage peptide display libraries, brain as the selected organ, kidney as control organ. On the set-up: species or system mice. The note with it: phage recovered from brain; 73 cloned phage sequenced.
On to “LNCDYQGTNPATSVSVPCTV (displayed on phage) [peptide from phage recovered from brain]”, for which the “% PHAGE (of the clones sequenced)” value is on record as “(1.4%)”. Consider “CRTGTLFC (displayed on phage) [peptide from phage recovered from brain]”, for which the “% PHAGE (of the clones sequenced)” value is “(1.4%)”.

For “CGVRLGC (displayed on phage) [peptide from phage recovered from brain]”, the “% PHAGE (of the clones sequenced)” value is recorded as “(4.1%)”. To “YPCGGEAVAGVSSVRTMCSE (displayed on phage) [peptide from phage recovered from brain]” belongs “(1.4%)”; to “WRCVLREGPAGGCAWFNRHRL (displayed on phage)”, “(13.7%)”; to “CRHWFDVVC (displayed on phage) [peptide from phage recovered from brain]”, “(1.4%)”.

Regarding “CGNPSYRC (displayed on phage) [peptide from phage recovered from brain]”, the “% PHAGE (of the clones sequenced)” value is “(1.4%)”. Under “CKDWGRIC (displayed on phage) [peptide from phage recovered from brain]” stands “(2.8%)”; under “CLDWGRIC (displayed on phage) [peptide from phage recovered from brain]”, “(2.8%)”; under “CVLRGGRC (displayed on phage) [peptide from phage recovered from brain]”, “(6.8%)”. In the case of CLSSRLDAC (cyclic), the “% PHAGE (of the clones sequenced)” value is “(8.2%)”. To “CTRITESC (displayed on phage) [peptide from phage recovered from brain]” belongs “(2.8%)”; to CNSRLHLRC (displayed on phage), “(21.9%)”; to “CETLPAC (displayed on phage) [peptide from phage recovered from brain]”, “(1.4%)”.

In the case of “CNSRLQLRC (displayed on phage) [peptide from phage recovered from brain]”, the “% PHAGE (of the clones sequenced)” value was “(5.5%)”. As for “CGRSLDAC (displayed on phage) [peptide from phage recovered from brain]”, the “% PHAGE (of the clones sequenced)” value is reported as “(1.4%)”. For the substance “CANAQSHC (displayed on phage) [peptide from phage recovered from brain]”, the “% PHAGE (of the clones sequenced)” value is given as “(1.4%)”.

(Values after patent publication US6743892B1, “Molecules that home to a selected organ in vivo” (La Jolla Cancer Research Foundation, priority 1995, dated 2004).)
